Experiment [1] concerns the target T1, extracellular domain of mIFNGR2 (mouse).
T1 sequence (chain, conjugated to Alexa647 (site not stated)): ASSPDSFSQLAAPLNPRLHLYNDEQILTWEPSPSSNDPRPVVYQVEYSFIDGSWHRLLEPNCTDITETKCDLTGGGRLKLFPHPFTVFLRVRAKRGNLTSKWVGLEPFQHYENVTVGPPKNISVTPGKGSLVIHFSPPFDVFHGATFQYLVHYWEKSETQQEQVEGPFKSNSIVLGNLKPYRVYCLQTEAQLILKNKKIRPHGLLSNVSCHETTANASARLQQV
Nature of the experiment: flow cytometry. (In general: In flow cytometry, cells or beads pass a laser one at a time.)

Experiment [2] shares this target. Nature of the experiment: flow cytometry, yeast-displayed VHH, 100 nM Alexa647-conjugated antigen.

No constants are given. Whether binding was seen depends on the method and setting. Some results given as binding are weak or reduced against the parent protein; the word gives no strength.

B1: DR952 (VHH)
VHH: QVQLVESGGGLVQAGGFLRLSCAASGRTFSSLAMAWFRQAPGKEREFVAAISRSGGSTDYADSVKGRFTISRDNAKSTLYLQMSSLKPEDTAVYYCAARDYSTLQYYNEYEYSDWGQGTLVTVSS
notes: also called anti-IFNGR2 sdAb VHH DR952
With B1, the binding result in experiment [1] and in experiment [2] was “binds” throughout.

B2: DR929 (VHH)
VHH: QVQLVESGGGLVQAGGSLRLSCVASGRTFSSYAMGWFRQTPGKEREFVSAISRGGGSTDYADSVKGRFTISRDNAKNTVYLQMNNLKSEDTAVYYCALRAYSGRYYQFLEYDYWGQGTQVTVSS
notes: also called anti-IFNGR2 sdAb VHH DR929
Turning to B2, the binding entry in experiment [1] and in experiment [2] was “binds” each time.

B3: DR927 (VHH)
VHH: QVQLVESGGGLVQAGGSLRLSCAASGRTFTSYAMNWFRQAPGKEREFVAAISWSSGNTYVADSVKGRFAISRDKAKNTMYLQMNSLAPEDTAVYYCAATTIATMSDEYTYWGQGTQVTVSS
notes: also called anti-IFNGR2 sdAb VHH DR927
In the case of B3, the binding result in experiment [1] and in experiment [2] was “binds” each time.

B4: DR933 (VHH)
VHH: QVQLVESGGGLVQPGDSLRLSCVASGGTISSLAMGWFRQAPGKEREFVAAISWSGRSTYYVDSVKGRFTISTDNAKNTVYLQMNSLKPEDTAVYYCVAGEDGHSEYDYWGQGTQVTVSS
notes: also called anti-IFNGR2 sdAb VHH DR933
On to B4, for which the binding entry in experiment [1] and in experiment [2] was “binds” throughout.

B5: DR931 (VHH)
VHH: QVQLVESGGGLVQAGGSLLLSCAASGRTFSTYAMGWFRQAPGKERMFVAAISVNGGSTYYADSVTGRFTISRDNAKNTMYLQMNNLKPGDTAVYYCAARRPYPGSDFLTWASYDYRGQGTLVTVSS
notes: also called anti-IFNGR2 sdAb VHH DR931
B5: the binding result in experiment [1] and in experiment [2] was “binds” in each case.

B6: DR958 (VHH)
VHH: QVQLVESGGGLVQAGDSLTLSCTASGRTFSGYNMGWFRQAPGKERDFVAAINWIGGATYYADSVKGRFTISRDNAKNTVYLQMNSLKPEDTAVYYCHRYSEKFYSGKDYYTRDYDYWGQGTQVTVSS
notes: also called anti-IFNGR2 sdAb VHH DR958
For B6, the binding result in experiment [1] and in experiment [2] was “binds” throughout.

B7: DR932 (VHH)
VHH: QVQLVESGGGLVQAGGFLRLSCAASGRTFSYTTIGWFRQAPGKEREFVAVISAGGGSRDYADALKGRFTISRDNAKKMVYLQMNNLKPEDTAVYYCAVRRNTDTYTTTGDYDYWGQGTQVTVSS
notes: also called anti-IFNGR2 sdAb VHH DR932
In the case of B7, the binding result in experiment [1] and in experiment [2] was “binds” in each case.

B8: DR930 (VHH)
VHH: EVQLVESGGGLVQAGGSLRLSCTVSGRTFSSYAVAWFRQAPGNVRELAAALSRGGGSAYYTDSVKGRFTISRDNAKNTVYLQMNSLKPEDTAVYYCAARNYDGTYYQENQYNYWGQGTQVTVSS
notes: also called anti-IFNGR2 sdAb VHH DR930
With B8, the binding result in experiment [1] and in experiment [2] was “binds” throughout.

B9: DR956 (VHH)
VHH: EVQLVESGGGLVQAGGSLRLSCAASGRTFSSLAMAWFRQAPGKEREFVAATTILGGSADYGDPVKGRFTISRDNAKNTVYLQMNSLKPEDTAVYYCTGRRPAPSDNYWSPASYAYWGQGTQVTVSS
notes: also called anti-IFNGR2 sdAb VHH DR956
Consider B9, for which the binding entry in experiment [1] and in experiment [2] was “binds” each time.

B10: DR953 (VHH)
VHH: QVQLVESGGGLVQAGDSLRLSCAASGPTFSTYAMAWFRQAPGKEREFVAAITQSGRTTYYEDSVKGRFTISKDNAKNTLYLQMNSLQPEDTAVYYCAARDLWSDSPDDWRIYSFWGQGTQVTVSS
notes: also called anti-IFNGR2 sdAb VHH DR953
With B10, the binding result in experiment [1] and in experiment [2] was “binds” throughout.

B11: DR928 (VHH)
VHH: QVQLVESGGGLVQAGGSLRLSCAASGRTFSNYRMGWFRQAPGKEREFVAAISRGGGTTLYADSVKGRFTISRDNAKNTVDLQMNRLKPEDTAVYFCAAGDFSTTWDEYNYWGQGTQVTVSS
notes: also called anti-IFNGR2 sdAb VHH DR928
Regarding B11, the binding result in experiment [1] and in experiment [2] was “binds” in each case.

Values taken from US20230272088A1 (SYNTHEKINE, published 2023).
